Laboratory results reported in patent US20240018255A1.
These are yes or no findings as the source states them, for the method shown. Some entries that bind do so weakly or less than the wild type.

Protein sequences, listed by entry. Tags and fused reporters are not part of them. Residues count along the entry.
UniProt P78324, residues 31-504: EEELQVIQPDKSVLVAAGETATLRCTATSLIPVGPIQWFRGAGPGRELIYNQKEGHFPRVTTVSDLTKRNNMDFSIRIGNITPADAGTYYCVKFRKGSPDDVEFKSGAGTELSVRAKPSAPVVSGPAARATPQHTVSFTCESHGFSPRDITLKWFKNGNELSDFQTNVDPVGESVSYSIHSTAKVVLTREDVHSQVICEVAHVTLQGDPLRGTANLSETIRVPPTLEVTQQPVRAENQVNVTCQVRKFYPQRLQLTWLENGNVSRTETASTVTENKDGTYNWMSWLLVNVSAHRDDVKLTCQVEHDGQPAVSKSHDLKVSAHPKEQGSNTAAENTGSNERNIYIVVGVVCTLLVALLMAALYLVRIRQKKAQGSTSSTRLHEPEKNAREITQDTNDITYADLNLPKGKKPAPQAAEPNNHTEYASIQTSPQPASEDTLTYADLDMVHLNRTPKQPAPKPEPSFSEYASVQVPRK

molecular target: human SIRPα naturally expressed on human renal clear cell adenocarcinoma 786-O cells (human) (UniProt P78324); assay: FACS on 786-O cells, PE-anti human FC

| binding | Binder |
| --- | --- |
| binds | QP256253 (humanized anti-SIRPα antibody, QP163164 humanized clone) (antibody, human IgG4, V domains shown) VH: QVQLVQSGAEVKKPGASVKVSCKASGYTFTNYWINWVRQAPGQGLEWIAMIDPSDSETHYNQIFKDRATLTTDTSTSTAYMELRSLRSDDTAVYYCAMDYGSLYAMDYWGRGTLVTVSS VL: DIVLTQSPDSLAVSLGERATINCRASKSVSSSGYNYIFWYQQKPGQPPKLLIYLASNLDSGVPDRFSGSGSGTDFTLTISSLQAEDVAVYYCQHSRELPTFGQGTKLEIK |
| binds | QP2561586 (affinity-matured humanized anti-SIRPα antibody) (antibody, IgG4, V domains shown) VH: QVQLVQSGAEVKKPGASVKVSCKASGYTFTNYWINWVRQAPGQGLEWIAMIDPSDSETHYNQIFKDRATLTTDTSTSTAYMELRSLRSDDTAVYYCAMDYGSLYAMDYWGRGTLVTVSS VL: DIVLTQSPDSLAVSLGERATINCRASKSVSSSGYNYIFWYQQKPGQPPKLLIYLASNLDSGVPDRFSGSGSGTDFTLTISSLQAEDVAVYYCQESRELPTFGQGTKLEIK |
| binds | QP2561589 (affinity-matured humanized anti-SIRPα antibody) (antibody, IgG4, V domains shown) VH: QVQLVQSGAEVKKPGASVKVSCKASGYTFTNYWINWVRQAPGQGLEWIAMIDPSDSETHYNQIFKDRATLTTDTSTSTAYMELRSLRSDDTAVYYCAMDYGSLYAMDYWGRGTLVTVSS VL: DIVLTQSPDSLAVSLGERATINCRASKSVSSSGYNYIFWYQQKPGQPPKLLIYLASNLDSGVPDRFSGSGSGTDFTLTISSLQAEDVAVYYCQESWELPTFGQGTKLEIK |
| binds | QP256279 (affinity-matured humanized anti-SIRPα antibody) (antibody, IgG4, V domains shown) VH: QVQLVQSGAEVKKPGASVKVSCKASGYTFTNYWINWVRQAPGQGLEWIAMIDPSDSETHYNQIFKDRATLTTDTSTSTAYMELRSLRSDDTAVYYCAMDYGSLYAMDYWGRGTLVTVSS VL: DIVLTQSPDSLAVSLGERATINCRASQSVRSSGYNWIFWYQQKPGQPPKLLIYLASNRDSGVPDRFSGSGSGTDFTLTISSLQAEDVAVYYCQHSRELPTFGQGTKLEIK |
